According to the supplement of paper PMC8728848:
The list shows a part of the results.

What was measured:
Test in all cases: glycan array binding signal (z-score within array); higher = stronger binding
Conditions in all cases: glycan notation: IUPAC condensed, linker removed
[1] = target: Fuc(a1-2)[GalNAc(a1-3)]Gal(b1-3)GlcNAc(b1-3)GalNAc
Procedure, shortened: (§1)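 The binding signal is a Z-score computed within each array and averaged over linkers. Arrays of the same protein sequence at different concentrations or buffers were also averaged together. Data originate from 3228 arrays in the Consortium for Functional Glycomics database, kept only where the protein sequence was available.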

[2] = target: Fuc(a1-2)[GalNAc(a1-3)]Gal(b1-3)GlcNAc(b1-6)GalNAc
Procedure, shortened: as §1

[3] = target: Fuc(a1-2)[GalNAc(a1-3)]Gal(b1-4)Glc
Procedure, shortened: as §1

[4] = target: Fuc(a1-2)[GalNAc(a1-3)]Gal(b1-4)GlcNAc
Procedure, shortened: as §1

[5] = target: Fuc(a1-2)[GalNAc(a1-3)]Gal(b1-4)GlcNAc(b1-2)Man
Procedure, shortened: as §1

[6] = target: Fuc(a1-2)[GalNAc(a1-3)]Gal(b1-4)GlcNAc(b1-2)Man(a1-3)[Fuc(a1-2)[GalNAc(a1-3)]Gal(b1-4)GlcNAc(b1-2)Man(a1-6)]Man(b1-4)GlcNAc(b1-4)GlcNAc
Procedure, shortened: as §1

[7] = target: Fuc(a1-2)[GalNAc(a1-3)]Gal(b1-4)GlcNAc(b1-2)Man(a1-3)[Fuc(a1-2)[GalNAc(a1-3)]Gal(b1-4)GlcNAc(b1-2)Man(a1-6)]Man(b1-4)GlcNAc(b1-4)[Fuc(a1-6)]GlcNAc
Procedure, shortened: as §1

[8] = target: Fuc(a1-2)[GalNAc(a1-3)]Gal(b1-4)GlcNAc(b1-3)Gal(b1-4)GlcNAc
Procedure, shortened: as §1

[9] = target: Fuc(a1-2)[GalNAc(a1-3)]Gal(b1-4)GlcNAc(b1-3)Gal(b1-4)GlcNAc(b1-3)Gal(b1-4)GlcNAc
Procedure, shortened: as §1

[10] = target: Fuc(a1-2)[GalNAc(a1-3)]Gal(b1-4)GlcNAc(b1-3)GalNAc
Procedure, shortened: as §1

[11] = target: Fuc(a1-2)[GalNAc(a1-3)]Gal(b1-4)GlcNAc(b1-3)[Fuc(a1-2)[GalNAc(a1-3)]Gal(b1-4)GlcNAc(b1-6)]GalNAc
Procedure, shortened: as §1

[12] = target: Fuc(a1-2)[GalNAc(a1-3)]Gal(b1-4)GlcNAc(b1-6)GalNAc
Procedure, shortened: as §1

[13] = target: Fuc(a1-2)[GalNAc(a1-3)]Gal(b1-4)[Fuc(a1-3)]GlcNAc
Procedure, shortened: as §1

[14] = target: Fuc(a1-2)[GalNAc(a1-3)]Gal(b1-4)[Fuc(a1-3)]GlcNAc(b1-3)GalNAc
Procedure, shortened: as §1

[15] = target: Fuc(a1-2)[GalNAc(a1-4)]Gal(b1-4)GlcNAc
Procedure, shortened: as §1

[16] = target: Fuc(a1-2)[GalNAc(b1-3)]Gal
Procedure, shortened: as §1

[17] = target: Fuc(a1-3)GlcNAc
Procedure, shortened: as §1

[18] = target: Fuc(a1-3)[Gal(b1-4)]Glc6S
Procedure, shortened: as §1

[19] = target: Fuc(a1-3)[Gal(b1-4)]GlcNAc
Procedure, shortened: as §1

[20] = target: Fuc(a1-3)[Gal(b1-4)]GlcNAc(b1-2)Man
Procedure, shortened: as §1

[21] = target: Fuc(a1-3)[Gal(b1-4)]GlcNAc(b1-2)Man(a1-3)[Fuc(a1-3)[Gal(b1-4)]GlcNAc(b1-2)Man(a1-6)]Man(b1-4)GlcNAc(b1-4)GlcNAc
Procedure, shortened: as §1

[22] = target: Fuc(a1-3)[Gal(b1-4)]GlcNAc(b1-2)Man(a1-3)[Fuc(a1-3)[Gal(b1-4)]GlcNAc(b1-2)Man(a1-6)]Man(b1-4)GlcNAc(b1-4)[Fuc(a1-6)]GlcNAc
Procedure, shortened: as §1

[23] = target: Fuc(a1-3)[Gal(b1-4)]GlcNAc(b1-3)Gal(b1-3)[Fuc(a1-4)]GlcNAc
Procedure, shortened: as §1

[24] = target: Fuc(a1-3)[Gal(b1-4)]GlcNAc(b1-3)Gal(b1-4)[Fuc(a1-3)]GlcNAc
Procedure, shortened: as §1

[25] = target: Fuc(a1-3)[Gal(b1-4)]GlcNAc(b1-3)Gal(b1-4)[Fuc(a1-3)]GlcNAc(b1-3)Gal(b1-4)[Fuc(a1-3)]GlcNAc
Procedure, shortened: as §1

[26] = target: Fuc(a1-3)[Gal(b1-4)]GlcNAc(b1-3)GalNAc
Procedure, shortened: as §1

[27] = target: Fuc(a1-3)[Gal(b1-4)]GlcNAc(b1-6)GalNAc
Procedure, shortened: as §1

[28] = target: Fuc(a1-3)[Gal(b1-4)]GlcNAc(b1-6)[Gal(b1-3)GlcNAc(b1-3)]Gal(b1-4)Glc
Procedure, shortened: as §1

[29] = target: Fuc(a1-3)[Gal(b1-4)]GlcNAc6S
Procedure, shortened: as §1

[30] = target: Fuc(a1-3)[Gal3S(b1-4)]Glc
Procedure, shortened: as §1

[31] = target: Fuc(a1-3)[Gal3S(b1-4)]GlcNAc
Procedure, shortened: as §1

[32] = target: Fuc(a1-3)[Gal3S(b1-4)]GlcNAc6S
Procedure, shortened: as §1

[33] = target: Fuc(a1-3)[GalNAc(b1-4)]GlcNAc
Procedure, shortened: as §1

[34] = target: Fuc(a1-3)[GalNAc(b1-4)]GlcNAc6S
Procedure, shortened: as §1

[35] = target: Fuc(a1-4)GlcNAc
Procedure, shortened: as §1

[36] = target: Fuc(b1-3)GlcNAc
Procedure, shortened: as §1

[37] = target: Gal(a1-2)Gal
Procedure, shortened: as §1

B1: MUB70 (Lactobacillus reuteri) (protein)
chain: CVHVQYIDGETDQMLRQDDLDGYTDETIPYSTAEGIKKFEGDGYELFKDNFPAGEKFDNDDTNDQFYTVIF
[1]
  glycan array binding signal (z-score): 0.366
[2]
  glycan array binding signal (z-score): -0.37
[3]
  glycan array binding signal (z-score): 0.321
[4]
  glycan array binding signal (z-score): -0.262
[5]
  glycan array binding signal (z-score): 0.348
[6]
  glycan array binding signal (z-score): -0.449
[7]
  glycan array binding signal (z-score): -0.35
[8]
  glycan array binding signal (z-score): 0.078
[9]
  glycan array binding signal (z-score): 0.548
[10]
  glycan array binding signal (z-score): -0.319
[11]
  glycan array binding signal (z-score): -0.322
[12]
  glycan array binding signal (z-score): -0.221
[13]
  glycan array binding signal (z-score): 0.489
[14]
  glycan array binding signal (z-score): -0.274
[15]
  glycan array binding signal (z-score): -0.544
[16]
  glycan array binding signal (z-score): -0.451
[17]
  glycan array binding signal (z-score): -0.207
[18]
  glycan array binding signal (z-score): -0.115
[19]
  glycan array binding signal (z-score): -0.273
[20]
  glycan array binding signal (z-score): -0.422
[21]
  glycan array binding signal (z-score): -0.491
[22]
  glycan array binding signal (z-score): -0.454
[23]
  glycan array binding signal (z-score): -0.304
[24]
  glycan array binding signal (z-score): -0.143
[25]
  glycan array binding signal (z-score): -0.805
[26]
  glycan array binding signal (z-score): 0.315
[27]
  glycan array binding signal (z-score): -0.781
[28]
  glycan array binding signal (z-score): 1.45
[29]
  glycan array binding signal (z-score): 0.527
[30]
  glycan array binding signal (z-score): 0.497
[31]
  glycan array binding signal (z-score): 0.226
[32]
  glycan array binding signal (z-score): 0.18
[33]
  glycan array binding signal (z-score): 0.557
[34]
  glycan array binding signal (z-score): -0.174
[35]
  glycan array binding signal (z-score): 0.994
[36]
  glycan array binding signal (z-score): -0.459
[37]
  glycan array binding signal (z-score): -0.747
